Assay results: ChEMBL document CHEMBL1147255, “Isolation and structure elucidation of Sch 642305, a novel bacterial DNA primase inhibitor produced by Penicillium verrucosum” (J Nat Prod, 2003)
In brackets after ≈: the same amount, converted by molar mass.

System: Escherichia coli
Experiment: Antibacterial activity against Escherichia coli HS294 after 18 hrs by microtitre plate method
Format: functional

CN[C@H](CC(C)C)C(=O)N[C@H]1C(=O)N[C@@H](CC(N)=O)C(=O)N[C@H]2C(=O)N[C@H]3C(=O)N[C@H](C(=O)N[C@H](C(=O)O)c4cc(O)cc(O)c4-c4cc3ccc4O)[C@H](O)c3ccc(c(Cl)c3)Oc3cc2cc(c3O[C@@H]2O[C@H](CO)[C@@H](O)[C@H](O)[C@H]2O[C@H]2C[C@](C)(N)[C@H](O)[C@H](C)O2)Oc2ccc(cc2Cl)[C@H]1O [VANCOMYCIN]
MIC: 16 µg/mL (≈ 11 µM)
